These are yes or no findings as the source states them, for the method shown. For some of these results: Binding can be weak; no strength is given. Where a sequence is shown, tags or fusion partners need not be part of it. For some of these results: Binding seen in cells or lysates may run through a third protein.
T1: MBP-Scyl1 (UniProt Q96KG9)
T1 sequence: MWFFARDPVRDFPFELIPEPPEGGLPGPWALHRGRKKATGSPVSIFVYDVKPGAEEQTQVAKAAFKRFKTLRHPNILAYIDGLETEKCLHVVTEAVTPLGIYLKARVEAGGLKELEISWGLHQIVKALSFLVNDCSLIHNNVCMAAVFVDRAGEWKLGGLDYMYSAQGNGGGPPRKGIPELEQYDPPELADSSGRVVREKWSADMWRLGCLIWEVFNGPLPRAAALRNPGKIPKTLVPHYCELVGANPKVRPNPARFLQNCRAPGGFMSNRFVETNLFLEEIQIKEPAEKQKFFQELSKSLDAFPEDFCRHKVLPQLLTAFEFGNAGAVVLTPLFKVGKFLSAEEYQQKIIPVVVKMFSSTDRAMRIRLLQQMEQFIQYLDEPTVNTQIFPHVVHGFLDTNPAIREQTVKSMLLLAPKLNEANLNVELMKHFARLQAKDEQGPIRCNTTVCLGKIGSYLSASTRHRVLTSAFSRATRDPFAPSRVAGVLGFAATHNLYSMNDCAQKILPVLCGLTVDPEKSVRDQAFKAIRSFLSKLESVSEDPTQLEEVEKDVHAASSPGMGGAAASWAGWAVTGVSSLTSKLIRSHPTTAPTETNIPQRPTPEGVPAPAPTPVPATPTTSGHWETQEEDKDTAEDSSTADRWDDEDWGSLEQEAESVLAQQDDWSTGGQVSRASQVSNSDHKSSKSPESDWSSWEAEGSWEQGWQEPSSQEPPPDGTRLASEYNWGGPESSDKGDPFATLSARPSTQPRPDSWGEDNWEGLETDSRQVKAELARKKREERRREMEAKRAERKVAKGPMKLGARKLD


What was measured:
MBP-Scyl1 = molecular target: T1, MBP-Scyl1; assay: SPR; ProteOn XPR36, GLH chip; cross-linked anti-MBP antibody, MBP-Scyl1 captured (3000 RU), GST-GORAB variants as analyte at 30 nM, 100 µL/min, 120 s association, 600 s dissociation; 150 mM NaCl, 10 mM HEPES, 0.02% Tween-20, pH 7.4; both purified
GST-GORAB (human) = assay: pull-down; GST or GST-GORAB as bait with lysates of cells transiently expressing GFP-tagged Scyl1 constructs; western blotting; only the target purified
[1] = molecular target: GORAB-mycFKBP (wild type) (human); assay: mitochondrial relocation assay (fluorescence microscopy); HeLaM cells co-transfected with mito-FRB and GORAB-mycFKBP (K190del or wild type); 2.5 µg/mL nocodazole 2 h, then 1 µM rapamycin 3 h; in some samples 5 µg/mL BFA for 15 min; recruitment of co-expressed or endogenous proteins to mitochondria
[2] = molecular target: GORABK190del-mycFKBP (human); assay: as above

Row | binding (MBP-Scyl1) | binding (GST-GORAB (human)) | binding [1] | binding [2] | Molecule
1 | no binding (tested: 30 nM) |  |  |  | GST-GORAB F8L (human)
2 |  | binds | binds | binds | GFP-Scyl1 (protein, UniProt Q96KG9 1-808) MWFFARDPVRDFPFELIPEPPEGGLPGPWALHRGRKKATGSPVSIFVYDVKPGAEEQTQVAKAAFKRFKTLRHPNILAYIDGLETEKCLHVVTEAVTPLGIYLKARVEAGGLKELEISWGLHQIVKALSFLVNDCSLIHNNVCMAAVFVDRAGEWKLGGLDYMYSAQGNGGGPPRKGIPELEQYDPPELADSSGRVVREKWSADMWRLGCLIWEVFNGPLPRAAALRNPGKIPKTLVPHYCELVGANPKVRPNPARFLQNCRAPGGFMSNRFVETNLFLEEIQIKEPAEKQKFFQELSKSLDAFPEDFCRHKVLPQLLTAFEFGNAGAVVLTPLFKVGKFLSAEEYQQKIIPVVVKMFSSTDRAMRIRLLQQMEQFIQYLDEPTVNTQIFPHVVHGFLDTNPAIREQTVKSMLLLAPKLNEANLNVELMKHFARLQAKDEQGPIRCNTTVCLGKIGSYLSASTRHRVLTSAFSRATRDPFAPSRVAGVLGFAATHNLYSMNDCAQKILPVLCGLTVDPEKSVRDQAFKAIRSFLSKLESVSEDPTQLEEVEKDVHAASSPGMGGAAASWAGWAVTGVSSLTSKLIRSHPTTAPTETNIPQRPTPEGVPAPAPTPVPATPTTSGHWETQEEDKDTAEDSSTADRWDDEDWGSLEQEAESVLAQQDDWSTGGQVSRASQVSNSDHKSSKSPESDWSSWEAEGSWEQGWQEPSSQEPPPDGTRLASEYNWGGPESSDKGDPFATLSARPSTQPRPDSWGEDNWEGLETDSRQVKAELARKKREERRREMEAKRAERKVAKGPMKLGARKLD

Reference: article PMC6328613
